Experimental data as given in US20160279215A1, “NOVEL PEPTIDES AND COMBINATION OF PEPTIDES FOR USE IN IMMUNOTHERAPY AGAINST VARIOUS TUMORS” (immatics biotechnologies GmbH, priority 2015, published 2016).

Legend:
Set-up in all cases: species or system human
[1] = tested on: source genes of the peptides (mRNA) in tumor and normal tissue; assay: Expression profiling of source genes by Affymetrix microarrays (target coverage); conditions: over-expression = more than 1.5-fold higher expression on tumor vs. normal tissue with highest expression, gene with minimal coverage decisive; for Target coverage for source genes of selected peptides, BPHI/PCA (%): BPHI/PCA (prostate cancer) samples; for Target coverage for source genes of selected peptides, CRC (%): CRC tumor samples; for Target coverage for source genes of selected peptides, GB (%): GB tumor samples; for Target coverage for source genes of selected peptides, GC (%): GC tumor samples; for Target coverage for source genes of selected peptides, HCC (%): HCC tumor samples; for Target coverage for source genes of selected peptides, NSCLC (%): NSCLC tumor samples; for Target coverage for source genes of selected peptides, PC (%): PC tumor samples; for Target coverage for source genes of selected peptides, RCC (%): RCC tumor samples
[2] = tested on: source genes of the peptides (mRNA) in tumor and normal tissue; assay: Expression profiling of source genes by RNAseq (target coverage); conditions: share of tumors with more than 1.5-fold over-expression vs highest-expressing relevant normal tissue; for Target coverage for source genes, AML (%): acute myeloid leukemia; for Target coverage for source genes, BRCA (%): breast cancer; for Target coverage for source genes, CLL (%): chronic leukemia (CLL); for Target coverage for source genes, OSCAR (%): esophageal cancer incl. gastric-oesophageal junction; for Target coverage for source genes, GBC_CCC (%): gallbladder adenocarcinoma and cholangiocarcinoma; for Target coverage for source genes, MEL (%): melanoma; for Target coverage for source genes, OC (%): ovarian cancer; for Target coverage for source genes, SCLC (%): small cell lung cancer; for Target coverage for source genes, UBC (%): urinary bladder cancer; for Target coverage for source genes, UTC (%): uterine cancer; for Target coverage for source genes, NHL (%): non-Hodgkin lymphoma
[3] = Identification and label-free relative LC-MS quantitation of HLA-presented peptides on tumor and normal tissue samples (XPRESIDENT presentation profiles); conditions: for Entities of particular interest: entities where the peptide was over-presented on cancer samples compared to normal tissues; for Additional entities of particular interest (presentation of selected peptides across entities): tumor entities on which the HLA-presented peptide was found, entity abbreviations defined in the title of Table 4B

Row | Substance | Target coverage for source genes of selected peptides, BPHI/PCA (%) [1] | Target coverage for source genes of selected peptides, CRC (%) [1] | Target coverage for source genes of selected peptides, GB (%) [1] | Target coverage for source genes of selected peptides, GC (%) [1] | Target coverage for source genes of selected peptides, HCC (%) [1] | Target coverage for source genes of selected peptides, NSCLC (%) [1] | Target coverage for source genes of selected peptides, PC (%) [1] | Target coverage for source genes of selected peptides, RCC (%) [1] | Target coverage for source genes, AML (%) [2] | Target coverage for source genes, BRCA (%) [2] | Target coverage for source genes, CLL (%) [2] | Target coverage for source genes, OSCAR (%) [2] | Target coverage for source genes, GBC_CCC (%) [2] | Target coverage for source genes, MEL (%) [2] | Target coverage for source genes, OC (%) [2] | Target coverage for source genes, SCLC (%) [2] | Target coverage for source genes, UBC (%) [2] | Target coverage for source genes, UTC (%) [2] | Entities of particular interest [3] | Additional entities of particular interest (presentation of selected peptides across entities) [3] | other results
1 | 242: peptide found in CENPE (gene looked up) (KLQEEIPVL; listed as Homo sapiens) [compound 242] | I (<19% over-expression = I) | II (20-49% = II) | III (50-69% = III) | II (20-49% = II) | I (<19% over-expression = I) | II (20-49% = II) | I (<19% over-expression = I) | I (<19% over-expression = I) | I (<19% over-expression = I) | I (<19% over-expression = I) | I (<19% over-expression = I) | I (<19% over-expression = I) | I (<19% over-expression = I) | I (<19% over-expression = I) | I (<19% over-expression = I) | I (<19% over-expression = I) | I (<19% over-expression = I) | I (<19% over-expression = I) | GB, NSCLC, CRC | BRCA, MEL, NHL | 
2 | 248: peptide found in CDK1 (gene looked up) (VLMQDSRLYL; listed as Homo sapiens) [compound 248] | I (<19% over-expression = I) | IV (>70% = IV) | IV (>70% = IV) | IV (>70% = IV) | II (20-49% = II) | IV (>70% = IV) | III (50-69% = III) | II (20-49% = II) | I (<19% over-expression = I) | I (<19% over-expression = I) | I (<19% over-expression = I) | I (<19% over-expression = I) | I (<19% over-expression = I) | I (<19% over-expression = I) | I (<19% over-expression = I) | I (<19% over-expression = I) | I (<19% over-expression = I) | I (<19% over-expression = I) | NSCLC, CRC, PC | CLL, UBC, UTC, AML, NHL | Target coverage for source genes, NHL (%) [2]: II (20-49% = II)
3 | 252: peptide found in KIF4A (gene looked up) (SLMEKNQSL; listed as Homo sapiens) [compound 252] | I (<19% over-expression = I) | IV (>70% = IV) | III (50-69% = III) | III (50-69% = III) | I (<19% over-expression = I) | II (20-49% = II) | II (20-49% = II) | I (<19% over-expression = I) | I (<19% over-expression = I) | I (<19% over-expression = I) | I (<19% over-expression = I) | I (<19% over-expression = I) | I (<19% over-expression = I) | I (<19% over-expression = I) | I (<19% over-expression = I) | II (20-49% = II) | I (<19% over-expression = I) | I (<19% over-expression = I) | NSCLC, OC, CRC, OSCAR, RCC | AML | 
4 | 267: peptide found in TOP2A (gene looked up) (YLLDMPLWYL; listed as Homo sapiens) [compound 267] | I (<19% over-expression = I) | IV (>70% = IV) | IV (>70% = IV) | IV (>70% = IV) | II (20-49% = II) | IV (>70% = IV) | III (50-69% = III) | II (20-49% = II) | I (<19% over-expression = I) | I (<19% over-expression = I) | I (<19% over-expression = I) | I (<19% over-expression = I) | I (<19% over-expression = I) | I (<19% over-expression = I) | I (<19% over-expression = I) | III (50-69% = III) | I (<19% over-expression = I) | I (<19% over-expression = I) | NSCLC, RCC, CRC, OC, MEL | AML, NHL | Target coverage for source genes, NHL (%) [2]: II (20-49% = II)
5 | 270: peptide found in FANCI (gene looked up) (TLLTFFHEL; listed as Homo sapiens) [compound 270] | I (<19% over-expression = I) | III (50-69% = III) | II (20-49% = II) | II (20-49% = II) | I (<19% over-expression = I) | II (20-49% = II) | I (<19% over-expression = I) | I (<19% over-expression = I) | I (<19% over-expression = I) | I (<19% over-expression = I) | I (<19% over-expression = I) | II (20-49% = II) | I (<19% over-expression = I) | II (20-49% = II) | I (<19% over-expression = I) | II (20-49% = II) | I (<19% over-expression = I) | I (<19% over-expression = I) | GB, PC | UTC, GBC_CCC, AML, NHL | Target coverage for source genes, NHL (%) [2]: I (<19% over-expression = I)

For some of these results: For expression read-outs the peptide stands for its source gene, whose mRNA was measured; the gene is not named for every peptide.
